Test results as given in publication PMC10805922, “Exosomal secreted SCIMP regulates communication between macrophages and neutrophils in pneumonia” (Nature Communications, 2024).
These are yes or no findings as the source states them, for the method shown. Some entries that bind do so weakly or less than the wild type.

What was measured:
Assay in all cases: other fluorescence titration; competitive binding assay; labelled SCIMP^N mixed with serially diluted fMLF (5-1280 nM) and a fixed amount of FPR-containing HEK293 membrane debris, fluorescence at 512 nm measured for 4 min; only the binder purified
[1] = target: T1, human formyl peptide receptor 2 (FPR2) (human, UniProt P25090 1-351)
T1 construct: formyl peptide receptor 2, human, overexpressed in HEK293 cells; also called FPR2-HEK293; source: HEK293, transiently overexpressed
T1 sequence (looked up): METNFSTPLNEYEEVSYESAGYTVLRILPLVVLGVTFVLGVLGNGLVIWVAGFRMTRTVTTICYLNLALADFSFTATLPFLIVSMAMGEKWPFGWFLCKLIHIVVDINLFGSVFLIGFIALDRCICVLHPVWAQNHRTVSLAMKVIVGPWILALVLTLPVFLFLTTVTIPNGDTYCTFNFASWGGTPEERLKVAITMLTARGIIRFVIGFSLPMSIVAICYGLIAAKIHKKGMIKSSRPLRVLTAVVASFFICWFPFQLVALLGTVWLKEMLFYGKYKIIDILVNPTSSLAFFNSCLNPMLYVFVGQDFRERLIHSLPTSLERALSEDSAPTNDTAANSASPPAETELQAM

[2] = target: T2, human formyl peptide receptor 1 (FPR1) (human, UniProt P21462 1-350)
T2 construct: formyl peptide receptor 1, human, overexpressed in HEK293 cells; also called FPR1-HEK293; source: HEK293, transiently overexpressed
T2 sequence (looked up): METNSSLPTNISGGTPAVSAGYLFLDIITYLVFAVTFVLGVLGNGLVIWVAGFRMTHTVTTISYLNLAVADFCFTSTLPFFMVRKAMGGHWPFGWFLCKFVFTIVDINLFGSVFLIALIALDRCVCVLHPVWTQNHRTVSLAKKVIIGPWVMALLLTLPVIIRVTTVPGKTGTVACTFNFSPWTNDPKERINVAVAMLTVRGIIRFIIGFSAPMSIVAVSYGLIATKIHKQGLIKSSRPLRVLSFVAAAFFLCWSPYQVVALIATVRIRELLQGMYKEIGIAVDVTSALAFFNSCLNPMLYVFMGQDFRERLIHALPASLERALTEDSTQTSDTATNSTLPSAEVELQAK

murine FPR2 = target: T3, murine FPR2 (murine, UniProt O88536 1-351)
T3 construct: formyl peptide receptor 2, mouse, overexpressed in HEK293 cells; also called murine formyl peptide receptor 2; source: HEK293 overexpressing FPRs, membrane debris
T3 sequence (looked up): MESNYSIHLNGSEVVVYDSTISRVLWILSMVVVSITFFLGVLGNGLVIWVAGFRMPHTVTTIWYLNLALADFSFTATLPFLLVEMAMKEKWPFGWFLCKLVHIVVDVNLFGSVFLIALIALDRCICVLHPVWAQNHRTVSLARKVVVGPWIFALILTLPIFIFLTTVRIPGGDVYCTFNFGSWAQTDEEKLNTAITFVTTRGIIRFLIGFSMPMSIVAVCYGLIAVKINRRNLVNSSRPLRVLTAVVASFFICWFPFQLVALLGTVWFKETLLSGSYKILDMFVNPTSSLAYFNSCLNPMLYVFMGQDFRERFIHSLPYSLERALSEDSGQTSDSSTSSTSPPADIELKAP

murine FPR1 = target: T4, murine FPR1 (murine, UniProt P33766 1-364)
T4 construct: formyl peptide receptor 1, mouse, overexpressed in HEK293 cells; also called murine formyl peptide receptor 1; source: HEK293 overexpressing FPRs, membrane debris
T4 sequence (looked up): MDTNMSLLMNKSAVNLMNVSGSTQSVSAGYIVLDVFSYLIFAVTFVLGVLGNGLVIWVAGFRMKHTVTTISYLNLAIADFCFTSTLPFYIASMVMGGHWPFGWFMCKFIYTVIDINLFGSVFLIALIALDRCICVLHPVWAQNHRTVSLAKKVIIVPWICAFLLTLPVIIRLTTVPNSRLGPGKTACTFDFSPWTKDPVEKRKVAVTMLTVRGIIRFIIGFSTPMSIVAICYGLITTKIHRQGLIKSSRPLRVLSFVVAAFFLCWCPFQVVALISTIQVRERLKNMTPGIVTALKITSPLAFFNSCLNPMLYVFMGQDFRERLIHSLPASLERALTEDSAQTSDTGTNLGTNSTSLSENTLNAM

MDTFTVQDSTAMSWWRNN (labeled with BODIPY FL iodoacetamide (site not stated)) [human SCIMP N-terminus peptide (SCIMP^N, 18aa)]
binding [1]: binds
binding [2]: binds

MSWWRDNF (labeled with BODIPY FL iodoacetamide (site not stated)) [murine SCIMP N-terminus peptide (murine SCIMP^N)]
binding (murine FPR2): binds
binding (murine FPR1): binds
